# Measured data: PubChem BioAssay AID1259424 (University of Nebraska Medical Center, 2018)
# Test: 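Rank knockdowns across the genome by resemblance to the KSR1 depletion profile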 (primary screen)
# System: human HCT116 colon cancer cells
# Knock-down reagent: siRNA pool against human genes, 50 nM
# Measured: 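Six signature mRNAs by branched-DNA multiplex assay, scaled to two housekeeping genes and non-targeting median, log2; matched to mean KSR1 knockdown profile by Pearson correlation and euclidean distance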
# Reading the numbers: mean correlation with KSR1 profile and KSR1 correlation: higher = expression change more like KSR1 knockdown; mean distance from KSR1 profile: higher = expression change less like KSR1 knockdown
# Shown is an unselected part of about 14,000 deposited reagents. 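Higher correlation or smaller distance means closer resemblance to KSR1 loss; control wells, including KSR1 knockdowns, recur on many plates.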 Some reagents were tested in more than one well and are listed for each. The record does not give: the time to read-out.
gene knocked down,mean correlation with KSR1 profile,mean distance from KSR1 profile,"KSR1 correlation, replicate 1","KSR1 correlation, replicate 2","KSR1 correlation, replicate 3"
NMD3,-0.146,1.42,-0.567,-0.417,-0.416
SAE1,-0.581,1.87,-0.464,-0.666,-0.574
SYT13,-0.757,1.89,-0.656,-0.817,-0.789
RSF1,0.427,1.13,0.289,0.481,0.49
PIM2,0.589,2.12,0.716,0.649,0.275
SEMA6B,-0.701,2.35,-0.757,-0.726,-0.433
CD101,-0.413,3.83,-0.429,-0.476,-0.143
ACD,0.575,1.58,0.608,0.658,0.563
ADAMTSL3,0.403,2.69,0.655,0.459,0.189
ADAMTSL3,0.0245,1.87,-0.0618,-0.274,-0.0681
APRT,0.137,2.48,-0.056,0.156,0.279
TAX1BP3,0.471,2.97,0.561,0.296,0.163
HRH4,0.745,1.61,0.725,0.653,0.69
KRTAP4-12,0.643,1.55,0.349,0.47,0.789
WWC1,-0.231,2.75,-0.179,-0.393,-0.0699
PIK3CB,-0.269,2.44,0.151,-0.131,-0.405
PIK3CB,0.424,1.53,0.528,0.458,0.0312
TBK1,0.0486,2.37,0.226,0.21,-0.695
CDS2,0.0874,3,0.204,0.126,-0.078
COX6B1,-0.308,2.94,-0.343,-0.575,-0.233
OTOF,-0.46,2.64,-0.64,-0.49,-0.619
CD3G,-0.294,1.35,0.0416,-0.387,-0.219
PLA2G12A,0.68,1.77,0.479,0.778,0.455
GREM1,0.0455,1.71,0.0805,-0.868,0.0556
DIRAS2,-0.318,2.53,-0.423,-0.222,-0.707
MELTF,-0.28,2.65,-0.307,-0.454,-0.238
GPD1L,-0.616,3.17,-0.529,-0.697,-0.516
SRPK2,-0.0336,1.77,0.47,-0.681,0.00625
LCP2,0.739,1.57,0.689,0.743,0.677
SLC35E1,0.23,2.6,0.226,0.311,0.212
ITGAV,0.0112,3.04,0.231,-0.157,0.0827
ATP6V0D1,0.0225,2.92,-0.104,0.293,0.235
TGM1,-0.0325,1.34,-0.274,0.203,-0.00475
NEUROD6,-0.376,2.01,-0.585,-0.318,-0.17
REPIN1,0.396,2.01,0.189,0.0203,0.266
ZNF354C,0.0847,2.84,-0.258,-0.0025,0.00438
NT5M,-0.379,1.24,-0.436,-0.157,-0.0164
MAP4K3,0.613,1.04,0.379,0.681,0.625
NXT1,-0.267,1.74,-0.238,-0.156,-0.301
CELF6,-0.226,3.64,-0.0377,-0.353,-0.401
FBXO21,-0.0811,2.47,-0.158,-0.105,0.0544
CBS,-0.95,3.43,-0.829,-0.898,-0.322
APPL1,0.344,3.14,0.357,0.285,0.0382
ZBTB22,0.744,0.852,0.327,0.767,0.775
PPP2R2C,-0.603,1.63,-0.593,-0.152,-0.819
PSAT1,-0.502,1.91,-0.649,-0.635,-0.617
ATG4B,-0.0465,2.5,0.176,-0.244,-0.00151
SDAD1,-0.56,3.25,-0.32,-0.612,-0.592
UTP23,0.556,1.79,0.303,0.438,0.697
PTGFR,0.972,1.64,0.965,0.987,0.92

Looked up above:
For “KSR1 correlation, replicate 1”, SAE1 shows -0.464
Value for SLC35E1 in “KSR1 correlation, replicate 1”: 0.226
PSAT1, KSR1 correlation, replicate 1 = -0.649
Value of SRPK2 under “KSR1 correlation, replicate 1”: 0.47
NMD3, KSR1 correlation, replicate 2: -0.417
For “mean distance from KSR1 profile”, DIRAS2 reads 2.53
